Data source: PubChem BioAssay AID1259308 (NCATS, 2017)

Aim: 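Genes whose loss raises luciferase production in HEK293 cells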 (primary screen)
System: human HEK293 embryonic kidney cells stably expressing firefly luciferase (HEK-CMV-Luc2-Hygro)
Reagent: single siRNA against human genes, 0.8 pmol siRNA per well
Timing: 72 h
Read-out: 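Reporter luminescence and viable-cell signal on separate replicate plates, given as percent of non-targeting control and median/MAD z-scores, plus per-cell luciferase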
Scale: total luciferase, z-score and total luciferase, % of control: higher = more reporter protein produced
Active means: 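An siRNA counts as active if its total luciferase robust z-score exceeds 3; genes with two or more such siRNAs out of three were retested with fresh siRNAs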
Calls: active = raised luciferase; inactive = no rise
Here is a random part of about 59,000 deposited reagents. About 1,510 of them (2.6%) were called active. 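Calls use total luciferase alone and ignore viability, so some active siRNAs may act by altering cell number.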 Unmarked entries are inactive. The numbers tell different reagents against one gene apart. Further read-outs or replicates are left out here. Reagent sequences are not shown.

| gene | reagent | total luciferase, z-score | total luciferase, % of control |
| --- | --- | --- | --- |
| DNAJB2 (GeneID 3300) | 1 | -0.434 | 73.3 |
| DNAJB2 (GeneID 3300) | 2 | 1.23 | 106 |
| DNAJB2 (GeneID 3300) | 3 | 0.0842 | 83.6 |
| TAS2R20 (GeneID 259295) | 1 | 0.407 | 90 |
| TAS2R20 (GeneID 259295) | 2 | 0.336 | 88.6 |
| TAS2R20 (GeneID 259295) | 3 | 1.28 | 107 |
| TRIM40 (GeneID 135644) | 1 | -0.984 | 62.3 |
| TRIM40 (GeneID 135644) | 2 | 0.859 | 99 |
| TRIM40 (GeneID 135644) | 3 | -0.855 | 64.9 |
| ZNF440 (GeneID 126070) | 1 | -0.584 | 70.3 |
| ZNF440 (GeneID 126070) | 2 | -0.464 | 72.7 |
| ZNF440 (GeneID 126070) | 3 | -1.57 | 50.7 |
| PDPK1 (GeneID 5170) | 1 | 1.54 | 113 |
| PDPK1 (GeneID 5170) | 2 | 0.000376 | 81.9 |
| PDPK1 (GeneID 5170) | 3 | -0.0466 | 81 |
| METTL6 (GeneID 131965) | 1 | -0.591 | 70.1 |
| METTL6 (GeneID 131965) | 2 | -0.763 | 66.7 |
| METTL6 (GeneID 131965) | 3 | 2.09 | 123 |
| EEF1AKMT3 (GeneID 25895) | 1 | -0.301 | 75.9 |
| EEF1AKMT3 (GeneID 25895) | 2 | 3.68 (active) | 155 |
| EEF1AKMT3 (GeneID 25895) | 3 | 0.0786 | 83.4 |
| CYP17A1 (GeneID 1586) | 1 | -0.667 | 68.6 |
| CYP17A1 (GeneID 1586) | 2 | -0.726 | 67.4 |
| CYP17A1 (GeneID 1586) | 3 | 0.127 | 84.4 |
| NORAD (GeneID 647979) | 1 | -1.54 | 51.3 |
| NORAD (GeneID 647979) | 2 | 2.41 | 130 |
| NORAD (GeneID 647979) | 3 | 0.758 | 97 |
| PPCDC (GeneID 60490) | 1 | -0.186 | 78.2 |
| PPCDC (GeneID 60490) | 2 | 0.446 | 90.8 |
| PPCDC (GeneID 60490) | 3 | -0.793 | 66.1 |
| LIMS2 (GeneID 55679) | 1 | 1.45 | 111 |
| LIMS2 (GeneID 55679) | 2 | -0.151 | 78.9 |
| LIMS2 (GeneID 55679) | 3 | 0.308 | 88 |
| AK3 (GeneID 50808) | 1 | 0.867 | 99.1 |
| AK3 (GeneID 50808) | 2 | 1.01 | 102 |
| AK3 (GeneID 50808) | 3 | 0.0341 | 82.6 |
| APBA2 (GeneID 321) | 1 | -0.713 | 67.7 |
| APBA2 (GeneID 321) | 2 | 0.0409 | 82.7 |
| APBA2 (GeneID 321) | 3 | -0.693 | 68.1 |
| APOBEC1 (GeneID 339) | 1 | 0.0473 | 82.8 |
| APOBEC1 (GeneID 339) | 2 | -0.682 | 68.3 |
| APOBEC1 (GeneID 339) | 3 | 0.298 | 87.8 |
| PCLO (GeneID 27445) | 1 | -1.78 | 46.5 |
| PCLO (GeneID 27445) | 2 | 0.122 | 84.3 |
| PCLO (GeneID 27445) | 3 | -0.302 | 75.9 |
| SLC35E4 (GeneID 339665) | 1 | 0.916 | 100 |
| SLC35E4 (GeneID 339665) | 2 | 2.55 | 133 |
| SLC35E4 (GeneID 339665) | 3 | -1.02 | 61.6 |
| DENR (GeneID 8562) | 1 | 0.344 | 88.7 |
| DENR (GeneID 8562) | 2 | 0.558 | 93 |
| DENR (GeneID 8562) | 3 | 1.16 | 105 |
| FCRL4 (GeneID 83417) | 1 | -0.0116 | 81.7 |
| FCRL4 (GeneID 83417) | 2 | -0.178 | 78.3 |
| FCRL4 (GeneID 83417) | 3 | 1.26 | 107 |
| LRRC56 (GeneID 115399) | 1 | 1.05 | 103 |
| LRRC56 (GeneID 115399) | 2 | 0.915 | 100 |
| LRRC56 (GeneID 115399) | 3 | 1.08 | 103 |
| FUCA1 (GeneID 2517) | 1 | -1.63 | 49.4 |
| FUCA1 (GeneID 2517) | 2 | -0.831 | 65.4 |
| FUCA1 (GeneID 2517) | 3 | -1.68 | 48.5 |
| MSMP (GeneID 692094) | 1 | -0.346 | 75 |
| MSMP (GeneID 692094) | 2 | -0.364 | 74.7 |
| MSMP (GeneID 692094) | 3 | -0.165 | 78.6 |
| CFAP43 (GeneID 80217) | 1 | -0.619 | 69.6 |
| CFAP43 (GeneID 80217) | 2 | -0.246 | 77 |
| CFAP43 (GeneID 80217) | 3 | 0.224 | 86.3 |
| DYNC2H1 (GeneID 79659) | 1 | -0.0379 | 81.1 |
| DYNC2H1 (GeneID 79659) | 2 | -0.655 | 68.9 |
| DYNC2H1 (GeneID 79659) | 3 | -2.4 | 34.1 |
| GPR148 (GeneID 344561) | 1 | -0.499 | 72 |
| GPR148 (GeneID 344561) | 2 | 2.77 | 137 |
| GPR148 (GeneID 344561) | 3 | -0.573 | 70.5 |
| CSMD3 (GeneID 114788) | 1 | 1.1 | 104 |
| CSMD3 (GeneID 114788) | 2 | -1.33 | 55.5 |
| CSMD3 (GeneID 114788) | 3 | 0.757 | 96.9 |
